These are yes or no findings as the source states them, for the method shown. In cells and extracts the contact can be indirect. Some results given as binding are weak or reduced against the parent protein; the word gives no strength.
Legend:
[1] = molecular target: T1, Dok3 (endogenous, mouse bone marrow neutrophils) (mouse (endogenous in bone marrow neutrophils)) (UniProt Q9QZK7); experiment: co-IP; endogenous; lysates of WT mouse neutrophils IP with anti-Dok3 or IgG control; probed for Dok3 and MyD88
T1 sequence: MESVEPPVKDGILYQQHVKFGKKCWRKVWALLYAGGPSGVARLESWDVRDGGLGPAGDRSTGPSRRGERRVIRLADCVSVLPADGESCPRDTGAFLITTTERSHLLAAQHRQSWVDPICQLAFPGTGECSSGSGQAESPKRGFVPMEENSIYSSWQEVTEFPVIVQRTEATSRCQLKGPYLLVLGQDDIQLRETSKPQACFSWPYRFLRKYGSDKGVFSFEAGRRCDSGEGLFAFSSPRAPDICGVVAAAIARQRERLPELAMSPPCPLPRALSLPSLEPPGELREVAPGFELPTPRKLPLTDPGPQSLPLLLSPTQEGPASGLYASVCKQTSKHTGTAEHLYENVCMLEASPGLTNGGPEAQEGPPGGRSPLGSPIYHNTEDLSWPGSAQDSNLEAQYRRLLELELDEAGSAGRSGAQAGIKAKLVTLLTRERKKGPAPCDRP

The chains behind the UniProt entries cited, without tags or fusion partners.
UniProt P22366: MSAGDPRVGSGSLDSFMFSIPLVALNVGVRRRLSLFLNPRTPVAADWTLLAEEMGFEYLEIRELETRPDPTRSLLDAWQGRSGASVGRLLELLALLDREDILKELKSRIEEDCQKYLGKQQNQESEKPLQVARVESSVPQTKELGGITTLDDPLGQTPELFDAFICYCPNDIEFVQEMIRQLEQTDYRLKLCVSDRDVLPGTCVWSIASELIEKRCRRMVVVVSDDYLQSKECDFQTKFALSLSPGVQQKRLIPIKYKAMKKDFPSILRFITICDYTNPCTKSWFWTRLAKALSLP
UniProt Q62120: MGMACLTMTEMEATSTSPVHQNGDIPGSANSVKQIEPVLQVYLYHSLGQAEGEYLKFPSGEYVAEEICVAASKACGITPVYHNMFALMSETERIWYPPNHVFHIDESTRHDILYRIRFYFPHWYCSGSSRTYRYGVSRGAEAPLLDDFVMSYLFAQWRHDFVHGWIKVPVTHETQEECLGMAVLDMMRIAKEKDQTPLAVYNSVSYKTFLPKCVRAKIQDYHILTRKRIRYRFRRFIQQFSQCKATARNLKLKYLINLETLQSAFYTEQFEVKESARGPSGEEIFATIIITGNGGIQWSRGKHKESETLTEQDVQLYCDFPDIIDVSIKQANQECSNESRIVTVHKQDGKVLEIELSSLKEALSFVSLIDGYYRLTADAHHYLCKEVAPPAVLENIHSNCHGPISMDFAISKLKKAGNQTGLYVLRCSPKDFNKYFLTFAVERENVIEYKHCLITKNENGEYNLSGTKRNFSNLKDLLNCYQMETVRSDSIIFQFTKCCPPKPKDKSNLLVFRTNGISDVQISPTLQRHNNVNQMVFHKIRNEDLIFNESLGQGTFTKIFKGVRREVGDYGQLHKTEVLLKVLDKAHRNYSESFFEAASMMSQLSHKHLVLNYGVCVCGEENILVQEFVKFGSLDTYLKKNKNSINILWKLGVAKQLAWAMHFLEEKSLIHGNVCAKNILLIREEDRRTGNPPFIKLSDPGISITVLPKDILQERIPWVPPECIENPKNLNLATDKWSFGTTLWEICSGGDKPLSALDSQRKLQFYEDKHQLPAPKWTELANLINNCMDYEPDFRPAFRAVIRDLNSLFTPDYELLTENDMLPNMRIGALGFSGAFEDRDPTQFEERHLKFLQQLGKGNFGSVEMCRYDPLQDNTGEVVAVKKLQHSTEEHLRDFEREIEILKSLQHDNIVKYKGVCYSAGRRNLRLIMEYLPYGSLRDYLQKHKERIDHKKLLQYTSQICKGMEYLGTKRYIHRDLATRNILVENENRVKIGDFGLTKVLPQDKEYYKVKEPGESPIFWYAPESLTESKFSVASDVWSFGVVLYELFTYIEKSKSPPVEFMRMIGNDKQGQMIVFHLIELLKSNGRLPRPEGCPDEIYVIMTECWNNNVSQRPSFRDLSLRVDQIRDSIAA

[2] = molecular target: MyD88 (endogenous, mouse bone marrow neutrophils) (mouse (endogenous in bone marrow neutrophils)) (UniProt P22366); experiment: co-IP; endogenous; lysates of WT and Dok3-/- mouse neutrophils treated with or without S protein for 15 min (or WT neutrophils with increasing PHPS1 and S protein), IP with anti-MyD88; probed for JAK2, pMyD88(Y257), MyD88

Substance | binding [1] | binding [2]
MyD88 (endogenous, mouse bone marrow neutrophils) (from UniProt P22366 1-296) | binds | 
JAK2 (endogenous, mouse bone marrow neutrophils) (from UniProt Q62120 1-1132) (enzyme) |  | binds

From article PMC9510782
